These are yes or no findings as the source states them, for the method shown. For part of these data: Binding seen in cells or lysates may run through a third protein. Some binding calls cover weakened binding; strength is not graded here.

The chains behind the UniProt entries cited, without tags or fusion partners. Where a name states a change or a piece, a line headed by the entry shows the natural chain unless it says otherwise. A line that says so, or that is headed by a name, gives the form on record, which may keep a tag or linker. Residues count along the entry.
UniProt Q9UKV8: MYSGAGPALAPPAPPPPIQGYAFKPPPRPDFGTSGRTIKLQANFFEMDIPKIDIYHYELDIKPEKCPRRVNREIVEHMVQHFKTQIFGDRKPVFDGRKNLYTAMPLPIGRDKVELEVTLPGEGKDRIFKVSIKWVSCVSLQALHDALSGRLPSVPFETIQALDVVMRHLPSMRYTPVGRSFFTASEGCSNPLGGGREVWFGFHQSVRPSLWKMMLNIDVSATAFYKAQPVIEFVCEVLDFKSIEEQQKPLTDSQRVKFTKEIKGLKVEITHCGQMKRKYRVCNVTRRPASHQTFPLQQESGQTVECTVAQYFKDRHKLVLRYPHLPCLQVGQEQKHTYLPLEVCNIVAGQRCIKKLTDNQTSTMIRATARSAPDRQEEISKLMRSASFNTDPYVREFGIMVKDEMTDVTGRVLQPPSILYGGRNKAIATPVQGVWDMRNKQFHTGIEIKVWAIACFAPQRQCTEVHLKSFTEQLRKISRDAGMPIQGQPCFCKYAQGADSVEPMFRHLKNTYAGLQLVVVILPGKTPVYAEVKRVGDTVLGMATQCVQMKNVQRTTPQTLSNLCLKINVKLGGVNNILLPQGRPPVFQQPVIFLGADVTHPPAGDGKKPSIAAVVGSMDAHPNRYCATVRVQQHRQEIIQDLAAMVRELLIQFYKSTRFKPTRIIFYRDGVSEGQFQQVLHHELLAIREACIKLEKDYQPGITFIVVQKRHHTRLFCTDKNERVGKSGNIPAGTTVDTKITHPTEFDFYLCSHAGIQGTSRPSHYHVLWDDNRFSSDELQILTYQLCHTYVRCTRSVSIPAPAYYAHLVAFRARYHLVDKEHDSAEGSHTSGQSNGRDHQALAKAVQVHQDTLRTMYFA
pSOS AGO2-PIWI (human Argonaute 2 PIWI domain fused to hSOS): residues 517-818 of Q9UKV8
UniProt P17980: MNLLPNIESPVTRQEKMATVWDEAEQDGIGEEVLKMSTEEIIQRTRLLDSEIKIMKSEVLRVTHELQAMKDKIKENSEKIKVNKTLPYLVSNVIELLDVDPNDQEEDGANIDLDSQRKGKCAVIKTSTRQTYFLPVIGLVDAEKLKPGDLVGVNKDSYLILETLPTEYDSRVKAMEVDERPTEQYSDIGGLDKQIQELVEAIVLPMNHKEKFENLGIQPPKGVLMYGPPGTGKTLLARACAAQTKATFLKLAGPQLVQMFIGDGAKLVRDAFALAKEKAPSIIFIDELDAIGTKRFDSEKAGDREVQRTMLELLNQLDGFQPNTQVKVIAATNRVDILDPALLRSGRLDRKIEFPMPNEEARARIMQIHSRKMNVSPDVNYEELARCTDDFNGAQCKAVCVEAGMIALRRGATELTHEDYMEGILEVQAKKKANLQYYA

The text below walks through data of PMC9759854.

Assay [1] deals with HA-AGO2-PIWI (human) (UniProt Q9UKV8). In words: co-IP; HeLa cells co-transfected with HA-AGO2-PIWI and Flag-PSMC3; nucleoplasmic or cytoplasmic extracts.
Assay [2] has the same target. The assay is described as follows: co-IP; HeLa cells co-transfected with HA-AGO2-PIWI and Flag-PSMC3; IP with anti-HA, blot with anti-Flag and anti-HA; lysates with or without RNase A (10 mg/ml, room temperature, 30 min).
Assay [3] has the same target. In words: co-IP; co-IP in A549 and Huh7 cells.
Assay [4] has as its target AGO2 (endogenous, precipitated with anti-AGO2 antibody) (human (endogenous in HeLa)) (UniProt Q9UKV8). The assay is described as follows: co-IP; HeLa cells transfected with Flag-tagged full-length PSMC3 or deletion mutants, 48 h; lysates immunoprecipitated with anti-AGO2 antibody, blot with anti-Flag and anti-AGO2.
Assay [5] has as its target pSOS AGO2-PIWI (human Argonaute 2 PIWI domain fused to hSOS) (human) (UniProt Q9UKV8). In words: two-hybrid; yeast two-hybrid; pSOS-AGO2-PIWI against full-length PSMC3 or deletion mutants.

As for “Flag-tagged full-length PSMC3 (from UniProt P17980 1-439)”, the binding result (with HA-AGO2-PIWI (human) [1]; with HA-AGO2-PIWI (human) [2]; with HA-AGO2-PIWI (human) [3]; in assay [4]) was “binds” in each case.

Regarding “PSMC3 (1–214) (yeast two-hybrid construct) (from UniProt P17980 1-214) (domain or fragment)”, the binding result in assay [5] is “binds”.

On to “full-length PSMC3 protein (yeast two-hybrid construct) (from UniProt P17980 1-439)”, for which, in assay [5], the binding result is “binds”.
